Reference: publication PMC5514026
No constants are given. Whether binding was seen depends on the method and setting. In cells and extracts the contact can be indirect. Some results given as binding are weak or reduced against the parent protein; the word gives no strength. Sequences can lack the tags named with a protein.

Biological target: T1, GFP-tagged XBP1s WT (mouse, full length) (mouse) (UniProt O35426)
T1 sequence: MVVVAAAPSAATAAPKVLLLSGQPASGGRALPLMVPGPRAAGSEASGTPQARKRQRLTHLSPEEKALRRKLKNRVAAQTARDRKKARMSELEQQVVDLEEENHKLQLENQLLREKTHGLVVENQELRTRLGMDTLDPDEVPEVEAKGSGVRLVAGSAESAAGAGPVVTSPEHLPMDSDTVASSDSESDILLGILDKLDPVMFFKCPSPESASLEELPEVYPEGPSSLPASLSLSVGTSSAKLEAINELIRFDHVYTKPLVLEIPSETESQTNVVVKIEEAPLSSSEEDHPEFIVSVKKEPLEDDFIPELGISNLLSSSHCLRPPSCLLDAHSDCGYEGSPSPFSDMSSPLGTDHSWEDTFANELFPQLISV
Experiment: co-IP; HEK293 cells co-transfected with HA-CDK5 and GFP-XBP1s WT plasmids, collected 24 h after transfection; immunoprecipitation with GFP antibody, western blot with HA antibody

binding: binds
Substance: HA-tagged CDK5 (from UniProt P49615 1-292) (enzyme)
